The results in this text go back to paper PMC12690290.

Sequences of proteins named here, by UniProt entry; tags and fusion partners are left off. A change or cut given only in a name is not applied to a line headed by its entry. Residues count along the entry.
UniProt P02787, residues 20-698: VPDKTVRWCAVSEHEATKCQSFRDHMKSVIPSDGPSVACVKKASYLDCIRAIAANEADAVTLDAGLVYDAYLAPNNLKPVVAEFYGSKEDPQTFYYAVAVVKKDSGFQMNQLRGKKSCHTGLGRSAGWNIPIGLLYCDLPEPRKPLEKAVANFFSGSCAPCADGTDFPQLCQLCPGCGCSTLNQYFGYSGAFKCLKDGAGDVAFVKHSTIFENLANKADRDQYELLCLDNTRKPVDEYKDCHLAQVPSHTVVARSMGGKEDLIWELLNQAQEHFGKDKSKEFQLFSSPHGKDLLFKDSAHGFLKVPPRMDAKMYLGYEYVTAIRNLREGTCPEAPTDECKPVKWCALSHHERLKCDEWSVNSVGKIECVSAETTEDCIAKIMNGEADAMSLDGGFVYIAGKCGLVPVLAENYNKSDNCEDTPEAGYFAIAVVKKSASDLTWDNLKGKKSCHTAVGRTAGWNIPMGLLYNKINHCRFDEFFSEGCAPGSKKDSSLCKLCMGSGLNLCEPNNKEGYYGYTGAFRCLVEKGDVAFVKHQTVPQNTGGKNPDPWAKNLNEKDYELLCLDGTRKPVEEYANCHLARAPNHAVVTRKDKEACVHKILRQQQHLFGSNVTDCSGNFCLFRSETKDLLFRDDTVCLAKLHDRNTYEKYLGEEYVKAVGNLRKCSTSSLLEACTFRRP
UniProt P02652, residues 19-100: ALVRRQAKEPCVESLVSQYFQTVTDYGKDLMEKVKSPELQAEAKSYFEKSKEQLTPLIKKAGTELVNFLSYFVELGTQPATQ
UniProt P00751, residues 26-764: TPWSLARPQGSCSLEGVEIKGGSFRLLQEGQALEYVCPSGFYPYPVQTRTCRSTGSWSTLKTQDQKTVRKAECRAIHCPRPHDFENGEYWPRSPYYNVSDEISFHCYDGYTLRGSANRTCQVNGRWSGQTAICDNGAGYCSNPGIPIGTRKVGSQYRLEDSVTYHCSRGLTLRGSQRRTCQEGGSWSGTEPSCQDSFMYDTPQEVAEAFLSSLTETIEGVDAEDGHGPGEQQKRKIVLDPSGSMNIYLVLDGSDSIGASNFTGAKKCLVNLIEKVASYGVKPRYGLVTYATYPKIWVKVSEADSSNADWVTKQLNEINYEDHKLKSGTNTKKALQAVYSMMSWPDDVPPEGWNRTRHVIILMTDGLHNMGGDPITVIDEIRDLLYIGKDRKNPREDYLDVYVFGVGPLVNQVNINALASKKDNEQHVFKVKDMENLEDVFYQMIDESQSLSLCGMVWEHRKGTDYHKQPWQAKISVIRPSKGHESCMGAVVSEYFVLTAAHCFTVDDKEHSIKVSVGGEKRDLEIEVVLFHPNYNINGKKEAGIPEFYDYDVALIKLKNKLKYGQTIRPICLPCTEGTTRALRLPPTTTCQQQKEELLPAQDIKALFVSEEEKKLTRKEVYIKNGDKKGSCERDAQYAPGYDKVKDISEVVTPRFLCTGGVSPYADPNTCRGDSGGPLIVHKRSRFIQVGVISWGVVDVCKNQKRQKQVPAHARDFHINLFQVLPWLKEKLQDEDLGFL
UniProt Q14624, residues 29-930: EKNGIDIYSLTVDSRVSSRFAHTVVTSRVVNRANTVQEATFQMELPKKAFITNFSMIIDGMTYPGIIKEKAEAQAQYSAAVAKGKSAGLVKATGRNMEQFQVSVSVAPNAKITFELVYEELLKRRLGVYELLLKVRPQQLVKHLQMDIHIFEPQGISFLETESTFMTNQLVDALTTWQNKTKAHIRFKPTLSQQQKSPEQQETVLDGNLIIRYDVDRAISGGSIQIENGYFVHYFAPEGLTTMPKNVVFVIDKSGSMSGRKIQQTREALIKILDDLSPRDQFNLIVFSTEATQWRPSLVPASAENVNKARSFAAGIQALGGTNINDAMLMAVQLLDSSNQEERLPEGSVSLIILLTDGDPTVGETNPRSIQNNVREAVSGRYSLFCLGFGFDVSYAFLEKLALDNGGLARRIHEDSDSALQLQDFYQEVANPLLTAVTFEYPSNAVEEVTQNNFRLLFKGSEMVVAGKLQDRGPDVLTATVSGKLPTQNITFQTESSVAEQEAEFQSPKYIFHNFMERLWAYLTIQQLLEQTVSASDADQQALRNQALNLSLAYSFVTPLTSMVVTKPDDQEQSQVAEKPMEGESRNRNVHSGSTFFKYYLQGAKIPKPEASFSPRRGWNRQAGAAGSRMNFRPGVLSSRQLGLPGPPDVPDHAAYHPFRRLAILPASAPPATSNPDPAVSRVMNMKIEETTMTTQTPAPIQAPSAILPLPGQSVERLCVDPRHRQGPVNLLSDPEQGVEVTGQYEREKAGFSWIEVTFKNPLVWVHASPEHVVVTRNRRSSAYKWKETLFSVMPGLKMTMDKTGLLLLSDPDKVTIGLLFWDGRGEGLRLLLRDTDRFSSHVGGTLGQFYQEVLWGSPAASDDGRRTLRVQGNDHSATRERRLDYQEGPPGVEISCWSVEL
UniProt P00746: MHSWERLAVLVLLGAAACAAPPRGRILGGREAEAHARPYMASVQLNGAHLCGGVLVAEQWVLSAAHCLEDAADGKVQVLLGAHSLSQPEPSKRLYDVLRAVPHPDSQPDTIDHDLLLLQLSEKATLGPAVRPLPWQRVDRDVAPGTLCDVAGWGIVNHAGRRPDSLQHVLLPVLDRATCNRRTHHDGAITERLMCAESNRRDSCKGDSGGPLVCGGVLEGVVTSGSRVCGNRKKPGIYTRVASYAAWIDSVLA
UniProt P02749, residues 20-345: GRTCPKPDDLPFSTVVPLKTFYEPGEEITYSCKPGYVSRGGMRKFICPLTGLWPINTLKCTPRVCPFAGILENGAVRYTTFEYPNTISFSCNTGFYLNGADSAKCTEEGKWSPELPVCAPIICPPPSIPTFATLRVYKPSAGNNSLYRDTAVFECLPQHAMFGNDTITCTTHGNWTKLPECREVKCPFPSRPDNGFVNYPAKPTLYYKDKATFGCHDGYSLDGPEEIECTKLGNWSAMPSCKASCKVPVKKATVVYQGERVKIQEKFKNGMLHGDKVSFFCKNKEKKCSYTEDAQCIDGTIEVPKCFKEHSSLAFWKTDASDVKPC
UniProt P05090, residues 21-189: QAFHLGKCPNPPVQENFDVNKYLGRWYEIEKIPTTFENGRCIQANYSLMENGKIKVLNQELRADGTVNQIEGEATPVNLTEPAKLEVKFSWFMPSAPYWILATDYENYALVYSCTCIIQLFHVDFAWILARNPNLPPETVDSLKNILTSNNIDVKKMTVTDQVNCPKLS
UniProt P00747: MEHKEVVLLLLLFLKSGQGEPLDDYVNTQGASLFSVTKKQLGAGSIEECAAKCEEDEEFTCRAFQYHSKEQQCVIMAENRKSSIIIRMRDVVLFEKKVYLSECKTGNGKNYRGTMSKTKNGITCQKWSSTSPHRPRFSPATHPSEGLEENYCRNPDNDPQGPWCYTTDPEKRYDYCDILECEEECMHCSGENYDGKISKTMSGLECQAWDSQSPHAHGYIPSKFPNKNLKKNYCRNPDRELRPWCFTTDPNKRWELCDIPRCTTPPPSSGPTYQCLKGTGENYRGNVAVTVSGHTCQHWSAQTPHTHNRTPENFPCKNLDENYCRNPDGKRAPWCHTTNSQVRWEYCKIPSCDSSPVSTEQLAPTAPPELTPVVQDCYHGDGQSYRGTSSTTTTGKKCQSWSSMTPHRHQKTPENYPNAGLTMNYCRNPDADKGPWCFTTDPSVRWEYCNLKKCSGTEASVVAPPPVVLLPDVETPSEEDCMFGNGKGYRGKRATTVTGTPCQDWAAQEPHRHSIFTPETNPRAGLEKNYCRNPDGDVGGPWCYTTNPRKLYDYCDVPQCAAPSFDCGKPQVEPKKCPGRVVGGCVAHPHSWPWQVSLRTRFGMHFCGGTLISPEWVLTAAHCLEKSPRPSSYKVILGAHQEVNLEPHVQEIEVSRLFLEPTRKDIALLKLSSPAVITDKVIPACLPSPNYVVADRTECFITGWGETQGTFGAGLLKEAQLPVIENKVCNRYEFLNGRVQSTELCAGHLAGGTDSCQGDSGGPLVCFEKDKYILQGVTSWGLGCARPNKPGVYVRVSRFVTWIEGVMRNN

These are yes or no findings as the source states them, for the method shown. In cells and extracts the contact can be indirect. Here binding means that the protein was enriched with, or labelled near, the bait; the list need not be complete.

In assay [1] the target is T1, mesoheme–rabbit hemopexin (1:1 heme–HPX complex) (rabbit) (UniProt P20058).
T1 sequence: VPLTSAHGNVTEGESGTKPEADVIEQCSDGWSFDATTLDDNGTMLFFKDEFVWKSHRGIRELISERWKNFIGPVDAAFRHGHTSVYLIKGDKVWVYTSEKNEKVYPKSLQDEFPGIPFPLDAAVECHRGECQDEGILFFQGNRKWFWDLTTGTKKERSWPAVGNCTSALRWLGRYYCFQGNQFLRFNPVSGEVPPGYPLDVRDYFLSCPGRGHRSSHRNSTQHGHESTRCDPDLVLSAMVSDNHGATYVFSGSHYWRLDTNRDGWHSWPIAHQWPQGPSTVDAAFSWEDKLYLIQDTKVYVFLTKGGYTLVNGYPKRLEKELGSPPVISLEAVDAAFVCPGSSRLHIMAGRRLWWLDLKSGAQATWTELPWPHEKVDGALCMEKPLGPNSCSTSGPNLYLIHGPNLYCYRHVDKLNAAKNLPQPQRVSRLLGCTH
Description: affinity purification with mass spectrometry; proto-heme–human HPX, mesoheme–rabbit HPX or holo-human Tf Affi-Gel 15; detergent extracts of primary human hepatocytes; proteins found on underivatized, mouse IgG or ovalbumin resins filtered out; only the target purified.

In assay [2] the target is holo-human transferrin (human) (UniProt P02787). Described as above.
Assay [3] has the same target. As to the kind of experiment: affinity purification with mass spectrometry; heme–HPX or holo-human Tf Affi-Gel 15 against ovalbumin Affi-Gel 15; HepG2 whole-cell extracts (0.5% Triton X-100, HEPES pH 7.4, 150 mM NaCl); 2-fold or greater over the negative control counted as specifically bound; only the target purified.
Assay [4] addresses T1, mesoheme–rabbit hemopexin (1:1 heme–HPX complex) (rabbit). The assay is described as above.

Turning to “Apolipoprotein A-II (from UniProt P02652 19-100)”, the binding result in assay [1] and in assay [2] was “binds” in each case.
For “Complement factor B (from UniProt P00751 26-764) (enzyme)”, the binding result in assay [1] and in assay [2] was “binds” each time.
Consider “Inter-alpha-trypsin inhibitor heavy chain H4 (from UniProt Q14624 29-930)”, for which the binding entry in assay [1] and in assay [2] was “binds” throughout.
Consider “Complement factor D (from UniProt P00746) (enzyme)”, for which, in assay [2], the binding result is “binds”.
For the molecule “Apolipoprotein H (from UniProt P02749 20-345)”, the binding entry in assay [1], in assay [2] and in assay [3] was “binds” throughout.
Regarding “Apolipoprotein D (from UniProt P05090 21-189)”, the binding entry in assay [1] and in assay [2] was “binds” in each case.
Turning to “Plasminogen (from UniProt P00747) (enzyme)”, the binding entry in assay [1] and in assay [2] was “binds” throughout.

B1: Protein C inhibitor (protein, UniProt P05154 26-406)
chain: EMKKRVEDLHVGATVAPSSRRDFTFDLYRALASAAPSQSIFFSPVSISMSLAMLSLGAGSSTKMQILEGLGLNLQKSSEKELHRGFQQLLQELNQPRDGFQLSLGNALFTDLVVDLQDTFVSAMKTLYLADTFPTNFRDSAGAMKQINDYVAKQTKGKIVDLLKNLDSNAVVIMVNYIFFKAKWETSFNHKGTQEQDFYVTSETVVRVPMMSREDQYHYLLDRNLSCRVVGVPYQGNATALFILPSEGKMQQVENGLSEKTLRKWLKMFKKRQLELYLPKFSIEGSYQLEKVLPSLGISNVFTSHADLSGISNHSNIQVSEMVHKAVVEVDESGTRAAAATGTIFTFRSARLNSQRLVFNRPFLMFIVDNNILFLGKVNRP
In the case of B1, the binding entry in assay [1] and in assay [2] was “binds” throughout.

B2: TruB pseudouridine synthase family member 2 (enzyme, UniProt O95900 11-331)
chain: GLFAVYKPPGLKWKHLRDTVELQLLKGLNARKPPAPKQRVRFLLGPMEGSEEKELTLTATSVPSFINHPLVCGPAFAHLKVGVGHRLDAQASGVLVLGVGHGCRLLTDMYNAHLTKDYTVRGLLGKATDDFREDGRLVEKTTYDHVTREKLDRILAVIQGSHQKALVMYSNLDLKTQEAYEMAVRGLIRPMNKSPMLITGIRCLYFAPPEFLLEVQCMHETQKELRKLVHEIGLELKTTAVCTQVRRTRDGFFTLDSALLRTQWDLTNIQDAIRAATPQVAAELEKSLSPGLDTKQLPSPGWSWDSQGPSSTLGLERGAGQ
As to B2, the binding entry in assay [4] and in assay [3] was “binds” throughout.

B3: Fetuin-B (protein, UniProt Q9UGM5 16-382)
chain: CGAMSPPQLALNPSALLSRGCNDSDVLAVAGFALRDINKDRKDGYVLRLNRVNDAQEYRRGGLGSLFYLTLDVLETDCHVLRKKAWQDCGMRIFFESVYGQCKAIFYMNNPSRVLYLAAYNCTLRPVSKKKIYMTCPDCPSSIPTDSSNHQVLEAATESLAKYNNENTSKQYSLFKVTRASSQWVVGPSYFVEYLIKESPCTKSQASSCSLQSSDSVPVGLCKGSLTRTHWEKFVSVTCDFFESQAPATGSENSAVNQKPTNLPKVEESQQKNTPPTDSPSKAGPRGSVQYLPDLDDKNSQEKGPQEAFPVHLDLTTNPQGETLDISFLFLEPMEEKLVVLPFPKEKARTAECPGPAQNASPLVLPP
With B3, the binding result in assay [1] and in assay [2] was “binds” in each case.
